PubChem BioAssay AID504784 – Drosophila RNAi Screening Center, 2011
In all, the deposit lists about 17,000 reagents; shown is an unselected part of those that have a named target and a result. 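Each column is one replicate's B-score; the combined score over replicates was not deposited, so single values may mislead.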 A plus sign joins genes that one reagent is predicted to hit. Reagent sequences are not shown.

Screen: 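Fly genes whose silencing alters how much lipid cells keep in droplets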 (primary screen)
Cells: Drosophila Kc167 embryonic cells
Knock-down reagent: long dsRNA against Drosophila genes, about 250 ng dsRNA per well
Duration: 4 days
Challenge: cells fed 400 µM oleic acid bound to BSA
Measured: 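Cells imaged and segmented; ratio of lipid droplet area to nuclear area, log-transformed, then normalised as a B-score over the screen; higher means more stored lipid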
Scale: droplet/nuclear area B-score: higher = more stored lipid (overstorage)

| gene | DRSC id | droplet/nuclear area B-score, replicate 1 | droplet/nuclear area B-score, replicate 2 | droplet/nuclear area B-score, replicate 3 |
| --- | --- | --- | --- | --- |
| Sur-8 | DRSC15794 | 0.447 | -1.38 | – |
| Antdh | DRSC20307 | -1.93 | 0.0203 | -0.011 |
| CG6843 | DRSC10725 | 1.3 | 0.04 | – |
| CG31467 | DRSC16048 | 0.118 | -1.29 | – |
| CG1532 | DRSC20516 | -1.02 | 1.07 | – |
| CG30087 | DRSC21677 | -0.00121 | 0.357 | – |
| Prosbeta3 | DRSC16801 | -0.717 | 0.632 | – |
| sle | DRSC14557 | -0.0413 | 0.319 | – |
| Rpp25 | DRSC05002 | 1.02 | 0.842 | – |
| CG13676 | DRSC10035 | 0.0222 | -0.206 | – |
| gas | DRSC04521 | -1.89 | 3.24 | – |
| Cpr50Ca | DRSC05454 | 0.16 | -0.372 | – |
| Cpr50Ca | DRSC06372 | -0.962 | -0.00126 | – |
| Cpr50Ca | DRSC06375 | -0.847 | -0.749 | – |
| ftz | DRSC12626 | 0.319 | -0.0573 | – |
| PTP-ER | DRSC04636 | -0.985 | 0.0526 | – |
| PTP-ER | DRSC23325 | -0.275 | -1.05 | – |
| CG5078 | DRSC11762 | -0.456 | -0.00275 | – |
| Gr36b | DRSC21637 | 0.06 | 0.00993 | – |
| Cyp313a5 | DRSC16628 | -0.497 | 0.31 | – |
| CG31272 | DRSC16058 | -1.54 | -1.35 | – |
| Hex-t1 | DRSC16701 | -0.288 | -1.33 | – |
| tfc | DRSC07953 | 0.931 | 0.764 | – |
| tfc | DRSC07954 | -2.49 | -1.21 | – |
| tfc | DRSC08626 | 1.86 | -0.00591 | – |
| tfc | DRSC21704 | 0.552 | -0.0345 | – |
| Rpt3R | DRSC16501 | 0.0612 | 1.1 | – |
| p53 | DRSC17024 | 0.0396 | 0.215 | – |
| CG7202 | DRSC11818 | 0.184 | -0.81 | – |
| Art2 | DRSC00627 | -0.227 | 0.005 | – |
| bbg | DRSC11077 | -0.244 | -0.15 | – |
| bbg | DRSC11079 | 2.48 | 0.673 | – |
| CG17002 | DRSC04978 | 0.955 | 0.621 | – |
| Mpi | DRSC16417 | 0.847 | -0.464 | – |
| Amy-d | DRSC05919 | 0.268 | 0.486 | – |
| CG12914 | DRSC06229 | -0.00267 | -0.442 | – |
| tej | DRSC07219 | -2.53 | 0.00238 | – |
| CG14667 | DRSC12253 | 0.0202 | -0.227 | – |
| CG17930 | DRSC15292 | -0.546 | -4.07 | – |
| CG3634 | DRSC11747 | 0.327 | -0.424 | – |
| CG31275 | DRSC16919 | 0.112 | -0.198 | – |
| PQBP1 | DRSC14393 | 0.634 | 0.0479 | – |
| CaBP1 | DRSC01984 | 2.04 | -0.623 | – |
| l(1)G0320 | DRSC18255 | -0.0315 | -0.29 | 0.0441 |
| CG11695 | DRSC19416 | -1.31 | 0.347 | -1.78 |
| CG10237 | DRSC02029 | 0.651 | -0.689 | – |
| Pex3 | DRSC10731 | -0.865 | -0.803 | 1.06 |
| edl | DRSC06516 | -1.23 | -0.0224 | – |
| Bcs1 | DRSC02789 | -0.0472 | 0.0139 | – |
| CG5810 | DRSC15880 | -0.569 | -1.04 | – |
| CG5810 | DRSC21921 | -0.779 | 0.859 | – |
| Mad1 | DRSC07561 | -2.06 | 1.09 | – |
| CG5614 | DRSC15845 | -2.33 | -3.31 | -0.672 |
| PolE1 | DRSC16112 | 0.168 | 0.044 | – |
| CG2694 | DRSC18470 | -2.13 | – | – |
| Tret1-1 | DRSC07046 | 0.0285 | -0.18 | – |
| Tret1-1 | DRSC07048 | 0.185 | -0.176 | – |
| CG13692 | DRSC00361 | 0.713 | -0.2 | – |
| PIG-K | DRSC18496 | 0.524 | -0.173 | – |
| CG14440 | DRSC17933 | -1.36 | -0.857 | – |
| CG14440 | DRSC23008 | 0.0347 | 0.853 | – |
| CG14440 | DRSC23009 | 0.316 | 0.492 | – |
| CG8568 | DRSC20113 | 0.225 | 1.23 | – |
| CG34315 + Orc3 | DRSC07642 | -0.00687 | 4.17 | – |
| CG10862 | DRSC08170 | 0.642 | -0.339 | – |
| CG13438 | DRSC06398 | 0.122 | -0.4 | – |
| CG12551 (retired record) | DRSC04857 | -2.57 | -0.256 | – |
| CG12551 (retired record) | DRSC04864 | -2.8 | 2.62 | – |
| Egfr | DRSC03871 | -0.0554 | -1.13 | – |
| Egfr | DRSC04613 | 1.48 | -0.062 | – |
| Polr3K + Tcs1 | DRSC05988 | 2.17 | 0.0079 | – |
| snsl | DRSC00543 | -0.952 | -0.09 | – |
| Rab19 | DRSC11260 | -0.753 | -2.12 | – |
| CG9184 | DRSC08636 | -0.872 | -0.967 | -0.367 |
| CG9184 | DRSC22184 | -0.309 | -1.8 | – |
| Pgm1 | DRSC10490 | -0.258 | -0.00253 | 1.66 |
| CG8778 | DRSC07264 | -0.382 | -1.14 | – |
| CAH9 | DRSC15963 | 0.842 | -0.551 | – |
| CG3548 | DRSC04387 | -0.903 | 0.313 | – |
| rush | DRSC18568 | -1.53 | – | – |
| Miox | DRSC10747 | -0.508 | 0.814 | – |
| Ravus | DRSC15126 | 0.363 | -2.85 | – |
| CG32115 | DRSC22607 | -0.0411 | 0.0495 | – |

10 of these entries in another layout:
{"gene":"Cpr50Ca","DRSC id":"DRSC06372","droplet/nuclear area B-score, replicate 1":-0.962,"droplet/nuclear area B-score, replicate 2":-0.00126}
{"gene":"Cpr50Ca","DRSC id":"DRSC06375","droplet/nuclear area B-score, replicate 1":-0.847,"droplet/nuclear area B-score, replicate 2":-0.749}
{"gene":"ftz","DRSC id":"DRSC12626","droplet/nuclear area B-score, replicate 1":0.319,"droplet/nuclear area B-score, replicate 2":-0.0573}
{"gene":"PTP-ER","DRSC id":"DRSC04636","droplet/nuclear area B-score, replicate 1":-0.985,"droplet/nuclear area B-score, replicate 2":0.0526}
{"gene":"PTP-ER","DRSC id":"DRSC23325","droplet/nuclear area B-score, replicate 1":-0.275,"droplet/nuclear area B-score, replicate 2":-1.05}
{"gene":"CG5078","DRSC id":"DRSC11762","droplet/nuclear area B-score, replicate 1":-0.456,"droplet/nuclear area B-score, replicate 2":-0.00275}
{"gene":"Gr36b","DRSC id":"DRSC21637","droplet/nuclear area B-score, replicate 1":0.06,"droplet/nuclear area B-score, replicate 2":0.00993}
{"gene":"Cyp313a5","DRSC id":"DRSC16628","droplet/nuclear area B-score, replicate 1":-0.497,"droplet/nuclear area B-score, replicate 2":0.31}
{"gene":"CG31272","DRSC id":"DRSC16058","droplet/nuclear area B-score, replicate 1":-1.54,"droplet/nuclear area B-score, replicate 2":-1.35}
{"gene":"Hex-t1","DRSC id":"DRSC16701","droplet/nuclear area B-score, replicate 1":-0.288,"droplet/nuclear area B-score, replicate 2":-1.33}
